The values below come from PMC6307200.

Protein sequences, listed by entry. Tags and fused reporters are not part of them.
UniProt Q16666: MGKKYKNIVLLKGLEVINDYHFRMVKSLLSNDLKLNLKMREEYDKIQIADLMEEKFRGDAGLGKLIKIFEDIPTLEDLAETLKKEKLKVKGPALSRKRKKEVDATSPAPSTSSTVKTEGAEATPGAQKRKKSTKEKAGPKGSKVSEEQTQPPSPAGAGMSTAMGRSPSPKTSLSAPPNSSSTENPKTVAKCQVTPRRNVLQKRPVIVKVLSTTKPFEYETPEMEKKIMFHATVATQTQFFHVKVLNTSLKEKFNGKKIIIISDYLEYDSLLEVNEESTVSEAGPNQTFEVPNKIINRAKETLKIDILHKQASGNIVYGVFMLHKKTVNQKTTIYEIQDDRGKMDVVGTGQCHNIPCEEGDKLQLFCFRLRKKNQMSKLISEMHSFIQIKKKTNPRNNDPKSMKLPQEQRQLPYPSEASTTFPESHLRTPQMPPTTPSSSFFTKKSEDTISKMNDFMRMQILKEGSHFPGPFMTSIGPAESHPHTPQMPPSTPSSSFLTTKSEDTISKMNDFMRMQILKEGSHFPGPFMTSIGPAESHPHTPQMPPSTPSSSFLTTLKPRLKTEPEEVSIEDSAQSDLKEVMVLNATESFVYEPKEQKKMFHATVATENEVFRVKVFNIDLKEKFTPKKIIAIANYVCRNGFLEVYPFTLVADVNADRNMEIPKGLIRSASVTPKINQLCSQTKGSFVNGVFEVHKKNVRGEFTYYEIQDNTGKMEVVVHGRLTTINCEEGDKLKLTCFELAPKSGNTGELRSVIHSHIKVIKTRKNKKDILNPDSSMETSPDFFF

For the assay, the target named is T1, ADAR1 (human (endogenous in B-EBV cells)) (UniProt P55265).
T1 sequence: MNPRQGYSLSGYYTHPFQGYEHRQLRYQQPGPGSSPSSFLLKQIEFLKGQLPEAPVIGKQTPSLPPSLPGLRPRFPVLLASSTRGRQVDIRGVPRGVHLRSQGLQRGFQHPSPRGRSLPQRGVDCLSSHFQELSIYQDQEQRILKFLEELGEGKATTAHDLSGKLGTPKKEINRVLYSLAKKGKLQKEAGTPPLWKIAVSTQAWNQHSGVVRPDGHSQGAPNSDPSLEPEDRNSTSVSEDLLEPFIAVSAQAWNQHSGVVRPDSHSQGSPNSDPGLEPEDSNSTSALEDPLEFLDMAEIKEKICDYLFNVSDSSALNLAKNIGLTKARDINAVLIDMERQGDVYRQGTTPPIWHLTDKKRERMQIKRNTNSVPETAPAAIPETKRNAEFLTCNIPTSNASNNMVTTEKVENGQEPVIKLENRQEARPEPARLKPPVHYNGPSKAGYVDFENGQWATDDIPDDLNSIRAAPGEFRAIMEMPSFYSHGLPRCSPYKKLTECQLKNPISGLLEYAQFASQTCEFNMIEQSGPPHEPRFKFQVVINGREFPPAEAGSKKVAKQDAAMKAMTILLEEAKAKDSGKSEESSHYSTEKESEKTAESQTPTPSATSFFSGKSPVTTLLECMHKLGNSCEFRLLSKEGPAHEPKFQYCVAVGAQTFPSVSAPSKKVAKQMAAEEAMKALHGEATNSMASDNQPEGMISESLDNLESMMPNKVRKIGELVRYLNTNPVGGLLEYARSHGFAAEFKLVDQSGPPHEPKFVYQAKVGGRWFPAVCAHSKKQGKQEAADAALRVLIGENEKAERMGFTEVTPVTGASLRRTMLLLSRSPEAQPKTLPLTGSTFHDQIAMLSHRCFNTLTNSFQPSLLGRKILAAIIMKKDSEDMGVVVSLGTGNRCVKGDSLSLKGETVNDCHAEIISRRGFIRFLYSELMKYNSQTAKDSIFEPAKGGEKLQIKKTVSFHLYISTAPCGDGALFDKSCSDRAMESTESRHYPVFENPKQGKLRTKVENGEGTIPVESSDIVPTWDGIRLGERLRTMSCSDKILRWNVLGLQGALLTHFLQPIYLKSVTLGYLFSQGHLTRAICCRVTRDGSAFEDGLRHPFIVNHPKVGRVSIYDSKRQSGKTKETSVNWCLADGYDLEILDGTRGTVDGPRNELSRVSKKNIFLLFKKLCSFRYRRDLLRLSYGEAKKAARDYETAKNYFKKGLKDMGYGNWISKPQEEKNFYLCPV
Kind of assay: co-IP; B-EBV cells lysed by sonication in Tris-HCl 50 mM pH 7.4, NaCl 300 mM, 1% Triton X-100; extracts on Protein G Dynabeads coupled with mouse anti-ADAR1, 2 h at 4 °C, 5 washes; western blot for IFI16 and RPA70; IgG precipitate as control. (In general: Immunoblotting shows a protein as a band on a membrane.)

Results are given in words; binding and its absence hold for the method and conditions named. Binding seen in cells or lysates may run through a third protein. Some entries that bind do so weakly or less than the wild type.

On to “IFI16, interferon gamma inducible protein 16 (from UniProt Q16666 1-785)”, for which the binding result is reported as “binds weakly”.
